Among the test systems are OR5AN1 clone 1245; OR5AP2 clone 1209; OR5AR1 clone 1207; OR5AS1 clone 1135; OR5AU1 clone 1344; OR5B17 clone 1220; OR5B2 M200T clone 1246; OR5B21 I279F clone 1482; OR5B3 clone 1138; OR5C1 clone 1425; OR5D14 clone 1230; OR5D18 N136D clone 1203; OR5F1 S294N clone 1148; OR5H1 clone 1471; OR5H2 clone 1055; OR5H6 clone 1056.
What all share (assay): odorant receptor activation (CRE luciferase / Renilla) (fold of no-odor wells); higher = more activation
What all share (settings): 100 µM

In assay [1] the test system is OR5AU1 L66F/I248V clone 1421.
In assay [2] the test system is OR5H1 I153L/T181I clone 1473.
The subject of assay [3] is OR5H14 G64R/Y189C clone 1472.
Assay [4] has as its system OR5H2 E11Q/I225V/I281V clone 1466.

Several values for one entry are separate records, joined by “and”; a condition that tells them apart may be missing. Equal values may be shown once. This is one part of the list. Single wells; the ratio to wells without odorant was worked out here, and repeats agree poorly.

`COc1cc(C=O)ccc1O` [vanillin]: the odorant receptor activation in the assay on OR5AN1 clone 1245 stood at 0.852; with OR5AP2 clone 1209, 0.942; with OR5AR1 clone 1207, 1.01; with OR5AS1 clone 1135, 1.08; in assay [1] it was 1.04; with OR5AU1 clone 1344 it was 0.833. Moreover, the odorant receptor activation was 0.941 in the assay on OR5B17 clone 1220; 0.957 in the assay on OR5B2 M200T clone 1246; 1.12 in the assay on OR5B21 I279F clone 1482; 1.32 in the assay on OR5B3 clone 1138; 0.893 with OR5C1 clone 1425; 1.08 with OR5D14 clone 1230. Further, the odorant receptor activation with OR5D18 N136D clone 1203 came to 1.04; in the assay with OR5F1 S294N clone 1148 it was 1.05; in [2] it was 0.988; with OR5H1 clone 1471 it was 0.976; in assay [3] it was 0.944; in [4], 0.844. Moreover, the odorant receptor activation in the assay on OR5H2 clone 1055 was found to be 1.24; in the assay with OR5H6 clone 1056, 1.02.

Take `CCCCCOC(C)=O` [n-amyl acetate]: the odorant receptor activation with OR5AN1 clone 1245 is 0.511; with OR5AP2 clone 1209, 0.513; with OR5AR1 clone 1207, 0.635; with OR5AS1 clone 1135, 0.714; in assay [1] it was 0.771; with OR5AU1 clone 1344, 0.422. Besides, the odorant receptor activation is 0.565 in the assay on OR5B17 clone 1220; 0.688 with OR5B2 M200T clone 1246; 0.546 and 0.914 with OR5B21 I279F clone 1482; 0.852 in the assay on OR5B3 clone 1138; 0.788 in the assay with OR5C1 clone 1425; 0.458 with OR5D18 N136D clone 1203. For the same molecule, the odorant receptor activation with OR5F1 S294N clone 1148 was 0.585; in assay [2], 0.64 and 1.14; in the assay with OR5H1 clone 1471, 0.467 and 0.766; in assay [3], 0.655 and 0.657; in [4], 0.427 and 1.06; with OR5H2 clone 1055, 1.59. For the same molecule, the odorant receptor activation in the assay on OR5H6 clone 1056 turned out to be 1.6.

For the molecule `CC12C=CCC1C1CCC3=CC(=O)CCC3(C)C1CC2` (stereo unspecified) [androstadienone], the odorant receptor activation is 1.02 with OR5AP2 clone 1209; 1.28 in the assay with OR5AR1 clone 1207; 0.936 in the assay on OR5AS1 clone 1135; 0.952 in assay [1]; 1.1 and 1.02 in the assay on OR5AU1 clone 1344; 1.02 in the assay with OR5B17 clone 1220. Further, the odorant receptor activation with OR5B2 M200T clone 1246 is 1.23 and 1.07; with OR5B21 I279F clone 1482, 0.875 and 1.43; in the assay on OR5B3 clone 1138, 1.19; in the assay with OR5C1 clone 1425 it was 1.11; in the assay on OR5D14 clone 1230, 0.978; in the assay on OR5D18 N136D clone 1203 it was 0.949. For the same molecule, the odorant receptor activation with OR5F1 S294N clone 1148 is 1.3; in assay [2], 1.11 and 1.21; in the assay with OR5H1 clone 1471 it was 0.859 and 1.15; in [3], 0.886 and 1.28; in assay [4] it was 1.14 and 1.32; in the assay on OR5H2 clone 1055, 1.23. In addition, in the assay with OR5H6 clone 1056, the odorant receptor activation is 1.94.

Regarding `C=CCc1ccc(OC)c(OC)c1` [eugenol methyl ether], the odorant receptor activation with OR5AN1 clone 1245 was found to be 1.65; with OR5AP2 clone 1209, 1.52; in the assay on OR5AR1 clone 1207, 1.59; with OR5AS1 clone 1135, 1.42; in [1], 1.54; with OR5AU1 clone 1344 it was 1.27. Besides, the odorant receptor activation is 1.34 in the assay with OR5B17 clone 1220; 1.41 with OR5B2 M200T clone 1246; 1.37 in the assay on OR5B21 I279F clone 1482; 1.49 in the assay on OR5B3 clone 1138; 1.1 in the assay on OR5C1 clone 1425; 1.58 with OR5D14 clone 1230. Further, the odorant receptor activation in the assay on OR5D18 N136D clone 1203 stood at 1.51; with OR5F1 S294N clone 1148, 1.51; in assay [2], 1.23; with OR5H1 clone 1471, 1.48; in assay [3] it was 1.38; in assay [4], 1.34. Moreover, the odorant receptor activation in the assay with OR5H2 clone 1055 was 1.94; in the assay on OR5H6 clone 1056 it was 1.88.

Regarding `CC(C)(C)c1ccc(CCC=O)cc1` [bourgeonal], the odorant receptor activation amounted to 0.7 in the assay with OR5AN1 clone 1245; 0.625 in the assay on OR5AP2 clone 1209; 0.732 in the assay with OR5AR1 clone 1207; 0.861 in the assay with OR5AS1 clone 1135; 0.308 in [1]; 0.525 in the assay with OR5AU1 clone 1344. For the same molecule, the odorant receptor activation was 0.663 with OR5B17 clone 1220; 0.826 in the assay with OR5B2 M200T clone 1246; 0.886 in the assay on OR5B21 I279F clone 1482; 0.73 with OR5B3 clone 1138; 0.419 in the assay with OR5C1 clone 1425; 0.803 in the assay on OR5D14 clone 1230. The odorant receptor activation in the assay on OR5D18 N136D clone 1203 is 0.57; in the assay with OR5F1 S294N clone 1148, 0.78; in assay [2], 0.712; in the assay on OR5H1 clone 1471 it was 1.24; in [3], 0.852; in [4], 1.17. Further, the results for the odorant receptor activation in the assay with OR5H2 clone 1055 and in the assay on OR5H6 clone 1056 were 1.2 and 0.854, respectively.

Take `CC(=O)c1ccccc1` [acetophenone]: the odorant receptor activation in the assay with OR5AN1 clone 1245 turned out to be 1.5; in the assay with OR5AP2 clone 1209, 1.02; with OR5AR1 clone 1207, 1.25; in the assay on OR5AS1 clone 1135 it was 1.25; in assay [1] it was 0.917; in the assay on OR5AU1 clone 1344 it was 0.897. In addition, the odorant receptor activation is 1.08 in the assay on OR5B17 clone 1220; 1.37 in the assay on OR5B2 M200T clone 1246; 0.801 and 0.861 in the assay with OR5B21 I279F clone 1482; 1.46 with OR5B3 clone 1138; 1.05 in the assay with OR5C1 clone 1425; 1.2 in the assay with OR5D18 N136D clone 1203. Besides, the odorant receptor activation is 1.32 with OR5F1 S294N clone 1148; 1.33 and 0.776 in assay [2]; 0.765 and 0.637 in the assay with OR5H1 clone 1471; 1.04 and 0.511 in assay [3]; 1.27 and 0.828 in [4]; 0.905 with OR5H2 clone 1055. The same molecule gave an odorant receptor activation with OR5H6 clone 1056 of 1.15.

Regarding `C=CCc1ccc(O)c(OC)c1` [eugenol], the odorant receptor activation with OR5AN1 clone 1245 was 1.24 and 1.25; in the assay on OR5AP2 clone 1209, 2.42 and 1.41; in the assay with OR5AR1 clone 1207, 1.17 and 1.46; in assay [1], 1.02 and 1.44; with OR5AU1 clone 1344, 1.78 and 1.18; with OR5B17 clone 1220, 1.78 and 1.05. Further, the odorant receptor activation in the assay with OR5B2 M200T clone 1246 is 2.19 and 1.12; in the assay on OR5B21 I279F clone 1482, 1.86 and 1.24 and 1.21; in the assay with OR5B3 clone 1138, 2.96 and 1.33; in the assay on OR5C1 clone 1425, 1.3 and 1.11; in the assay with OR5D14 clone 1230, 1.25; in the assay on OR5D18 N136D clone 1203 it was 1.85 and 1.16. Besides, the odorant receptor activation was 1.82 and 1.35 in the assay on OR5F1 S294N clone 1148; 1.46 and 1.97 and 1.08 in [2]; 1.41 and 1.21 and 1.29 in the assay on OR5H1 clone 1471; 2.57 and 1.05 and 1.24 in assay [3]; 1.31 and 1.26 and 1.13 in assay [4]; 0.913 and 1.46 with OR5H2 clone 1055. For the same molecule, in the assay with OR5H6 clone 1056, the odorant receptor activation was 2.29 and 1.75.

For the origin of these results see the odorant receptor screen of Mainland et al. (2015).
